From paper PMC9950535, “Divalent metal cofactors differentially modulate RadA-mediated strand invasion and exchange in Saccharolobus solfataricus” (Bioscience Reports, 2023) come the findings set out here.

For at least one entry, the source does not settle the construct or the ends of the probe. A negative result means that nothing was seen under these conditions. Protein sequences can lack the tags named with them.

For this data set, the target named is T1, SsoRadA (Saccharolobus solfataricus) (UniProt Q55075).
T1 sequence (looked up, limits assumed): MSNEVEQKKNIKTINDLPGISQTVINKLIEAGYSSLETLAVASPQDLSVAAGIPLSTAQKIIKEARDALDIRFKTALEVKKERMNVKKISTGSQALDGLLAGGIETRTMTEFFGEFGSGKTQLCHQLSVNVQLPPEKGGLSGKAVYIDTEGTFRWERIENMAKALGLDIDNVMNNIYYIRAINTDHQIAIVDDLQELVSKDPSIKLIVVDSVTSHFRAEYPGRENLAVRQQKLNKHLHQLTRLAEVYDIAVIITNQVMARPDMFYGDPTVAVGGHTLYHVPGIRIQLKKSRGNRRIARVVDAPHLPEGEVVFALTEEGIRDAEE
Nature of the data set: filter binding. Particulars: Filter binding: 40 mM HEPES pH 7.0, 50 mM KCl, 10 mM CaCl2, MgCl2 or MnCl2, 20 pmol SsoRadA, 3 uM ATP where included, ssDNA varied, temperature not stated, recombinant protein, single-stranded DNA; for binding result: no ATP, no detectable binding at ssDNA 10-fold above the Kd with ATP.

As for “ACAGCACCAATGAAATCTATTAAGCTCCTCATCGTCCGCAAAAATATCGTCACCTCAAAAGGA [63-mer oligonucleotide]”, the Kd (usually a measure of binding affinity in units of concentration) (10 mM Ca2+, 3 uM ATP) was found to be 187 nM. The binding result is, setting by setting: (10 mM Ca2+) “no binding”; (10 mM Mg2+) “no binding”.
